Laboratory results as given in publication PMC7819943, “Rice protein-binding microarrays: a tool to detect cis-acting elements near promoter regions in rice”.
Some of the results follow.

The chains behind the UniProt entries cited, without tags or fusion partners.
UniProt Q0JBA9, entry or part of it: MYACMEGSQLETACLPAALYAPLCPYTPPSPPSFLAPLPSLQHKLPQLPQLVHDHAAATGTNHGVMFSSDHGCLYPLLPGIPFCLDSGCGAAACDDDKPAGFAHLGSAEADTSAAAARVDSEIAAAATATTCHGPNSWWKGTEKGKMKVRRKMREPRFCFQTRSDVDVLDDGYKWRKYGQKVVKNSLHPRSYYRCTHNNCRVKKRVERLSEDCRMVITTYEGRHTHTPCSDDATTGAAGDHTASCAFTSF

target: OsWRKY34 (Oryza sativa, UniProt Q0JBA9 1-250); experiment: protein-binding microarray (RPBM); PBS, 2% BSA, 51.3 ng/ul salmon testes DNA, 50 uM zinc acetate, 200 nM TF, 25 C, 1 h; high values mean tight binding; settings: protein: recombinant; tags: N-terminal polyhistidine and DsRed monomer fusion (pET32a); label: CyDye5-dUTP incorporated in the synthesized complementary strand; 3' TTTTT single-stranded linker to array surface; dsDNA, one strand shown
In short: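 Transcription factors were made in E. coli BL21-CodonPlus as N-terminal fusions to a polyhistidine tag and DsRed, then purified on Ni–NTA. After primer extension with Cy5-dUTP and blocking with 2% BSA, a custom Agilent array was exposed for 1 h at 25 °C to 200 nM protein in PBS, 2% BSA, salmon testes DNA and 50 µM zinc acetate. Washed arrays were scanned on an Axon 4000B, and the binding signal is per-feature fluorescence intensity in arbitrary units.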

Sequence	binding signal
GACGTGTATACTCTTGTTACGATATGCGTGTTTTTATTAGCGGAGTCACCTAGTGCAG	8900 fluorescence intensity (a.u.)
GGGTTGCAGGTTCACTGTGTCTAGCTACTGGAATTGGGGACGGAGTCACCTAGTGCAG	9910 fluorescence intensity (a.u.)
AGCTACCTGATACTACCTGATATACCTTCCTTCCTCGTCTCGGAGTCACCTAGTGCAG	8730 fluorescence intensity (a.u.)
AAACCGCCTTACATCGGCGTCTCAGCTCCACCGTTTCATTCGGAGTCACCTAGTGCAG	10300 fluorescence intensity (a.u.)
CAACCACCGCGCACTCACACACACTCTCCGACGATATTTTCGGAGTCACCTAGTGCAG	8980 fluorescence intensity (a.u.)
ATCATGAAGCCTTGTTGGACGGTCATCTTGTTTCTCTCATCGGAGTCACCTAGTGCAG	10200 fluorescence intensity (a.u.)
TGTGTGCCCACCCTGCTGCCAACATGCTTCTTGTTTAAATCGGAGTCACCTAGTGCAG	10500 fluorescence intensity (a.u.)
ACACTGTATTTAAATAGCATCTATACTTCCATCTAGTTCACGGAGTCACCTAGTGCAG	8400 fluorescence intensity (a.u.)
CACCTACTTTCACTTATTATCCAATCACAACATTCTTCCACGGAGTCACCTAGTGCAG	10700 fluorescence intensity (a.u.)
GCCCGCGGTTATGGGCGGGTCTAACAATGTCTTTCGTGATCGGAGTCACCTAGTGCAG	9280 fluorescence intensity (a.u.)
AGAAACAGCGCCACCCCGATCTCCTACCTCTACCGCTGCTCGGAGTCACCTAGTGCAG	9820 fluorescence intensity (a.u.)
TACCTCATCGGCGATCGGCCTTGCCCGCCTTGTCCAACCTCGGAGTCACCTAGTGCAG	8040 fluorescence intensity (a.u.)
GTCAATGCCCCGCTTGTTCCATGCATGCATCTCCAGCTGCCGGAGTCACCTAGTGCAG	8170 fluorescence intensity (a.u.)
GCTGCTGCCGTCTTGTTGGTCGCCTCTGCAACTTCTCTTGCGGAGTCACCTAGTGCAG	8290 fluorescence intensity (a.u.)
TTCCTTTTCTTTCCTCCGTTGATTGCGTGTGCCTGCCGGTCGGAGTCACCTAGTGCAG	12100 fluorescence intensity (a.u.)
AATTCTCATGTCTCCGCTAACTGAATTTCCTTGTATATTTCGGAGTCACCTAGTGCAG	8760 fluorescence intensity (a.u.)
GTGGGTCGCATGCGTTTGTACGGTGTTTCTTAAAAAAAATCGGAGTCACCTAGTGCAG	9540 fluorescence intensity (a.u.)
ACTCTATCTTCTCAACTTGTACGTCCTCTCTCGTTTTCTACGGAGTCACCTAGTGCAG	10800 fluorescence intensity (a.u.)
AGGTTGTGTTGGTCTCAGCTGCGTGGCGGACTCGTTGGGACGGAGTCACCTAGTGCAG	9150 fluorescence intensity (a.u.)
TAATATTGCTTTCATCTGTACCATCGATCTTTTGCTCCATCGGAGTCACCTAGTGCAG	13500 fluorescence intensity (a.u.)
AACTCATGGCTGCGCTTATTTTCGGACGGGTCATTGGGGTCGGAGTCACCTAGTGCAG	9340 fluorescence intensity (a.u.)
GGCCGCCTCGCCTGTTCTTGCTGTGGTTGGTTCTTGGGATCGGAGTCACCTAGTGCAG	12700 fluorescence intensity (a.u.)
CGCCGCCGCTATTTTCGTGTTTTTTGATTTCACGGTGCGCCGGAGTCACCTAGTGCAG	9340 fluorescence intensity (a.u.)

Another view of part of the listing above.
Sequence | binding signal
GTCAATGCCCCGCTTGTTCCATGCATGCATCTCCAGCTGCCGGAGTCACCTAGTGCAG | 8170 fluorescence intensity (a.u.)
GCTGCTGCCGTCTTGTTGGTCGCCTCTGCAACTTCTCTTGCGGAGTCACCTAGTGCAG | 8290 fluorescence intensity (a.u.)
